Measurements reported in publication PMC10410195.
For at least one entry, the source does not settle the construct or the ends of the probe. No signal at the amounts used counts as a negative. At least one verdict rests on a figure or table, not on a statement of the authors.

System: PnMYB4 (Panax notoginseng)
Assay: EMSA
Conditions: EMSA Kit (Beyotime), 4% native acrylamide gel; 100x and 500x unlabeled competitor; pH and temperature not stated; recombinant protein; protein details: His-tag (pET28a); label: biotin 3' end

Sequence	binding result
ACATAAATATAAAAAAATGTATGTGC / GCACATACATTTTTTTTATATTTATGT [PnSE-pro-probe-mutant 1]	no binding
ACATAAATATTGGTTGATGTATGTGC (double strand) [PnSE-pro-probe 1]	binds
AGTAATATGAGGGGGGTAAATAAATA (double strand) [PnSE-pro-probe-mutant 2]	no binding
AGTAATATGATAACCATAAATAAATA (double strand) [PnSE-pro-probe 2]	binds
ATTATTTTAACAACCAACTTATATTT (double strand) [PnSS-pro-probe 1]	binds
ATTATTTTAATTTTTTACTTATATTT (double strand) [PnSS-pro-probe-mutant 1]	no binding
GTACACCACAGGGGGGACAAGTAGTA (double strand) [PnDS-pro-probe-mutant 2 (also printed as mutant-F1/R1)]	no binding
GTACACCACATAACCAACAAGTAGTA (double strand) [PnDS-pro-probe 2 (also printed as probe-F1/R1)]	binds
TAGAACTAGGCCCCCCAACTAGAAAT (double strand) [PnDS-pro-probe-mutant 1]	no binding
TAGAACTAGGTGGTTAAACTAGAAAT (double strand) [PnDS-pro-probe 1]	binds
TTTCACATTCCAACTGCAAATTAAGC (double strand) [PnSS-pro-probe 2]	binds
TTTCACATTCTTTTTTCAAATTAAGC (double strand) [PnSS-pro-probe-mutant 2]	no binding
